PMC9380745
No constants are given. Whether binding was seen depends on the method and setting. Binding seen in cells or lysates may run through a third protein. These calls come from enrichment with a bait or labelling near it, and not all partners need be listed. Sequences can lack the tags named with a protein.

The chains behind the UniProt entries cited, without tags or fusion partners.
UniProt P38919: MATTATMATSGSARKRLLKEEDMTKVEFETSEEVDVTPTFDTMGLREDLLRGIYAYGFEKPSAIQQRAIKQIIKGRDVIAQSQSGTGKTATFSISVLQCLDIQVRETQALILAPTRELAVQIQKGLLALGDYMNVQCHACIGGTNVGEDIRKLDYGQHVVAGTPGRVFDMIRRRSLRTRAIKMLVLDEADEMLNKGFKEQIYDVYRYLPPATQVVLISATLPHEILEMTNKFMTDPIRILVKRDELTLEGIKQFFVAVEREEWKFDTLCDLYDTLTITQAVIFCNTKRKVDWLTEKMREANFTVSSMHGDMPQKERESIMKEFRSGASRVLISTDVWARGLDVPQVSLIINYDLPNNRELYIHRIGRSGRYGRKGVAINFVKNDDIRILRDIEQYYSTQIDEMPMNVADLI
UniProt P62318: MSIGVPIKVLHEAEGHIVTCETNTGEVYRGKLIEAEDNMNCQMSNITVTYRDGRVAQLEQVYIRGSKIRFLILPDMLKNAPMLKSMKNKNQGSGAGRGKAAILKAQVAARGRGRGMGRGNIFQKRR
UniProt P62316: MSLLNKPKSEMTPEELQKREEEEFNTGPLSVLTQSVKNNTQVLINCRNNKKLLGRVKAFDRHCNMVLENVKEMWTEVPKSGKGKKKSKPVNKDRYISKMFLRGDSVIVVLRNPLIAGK
UniProt O43143: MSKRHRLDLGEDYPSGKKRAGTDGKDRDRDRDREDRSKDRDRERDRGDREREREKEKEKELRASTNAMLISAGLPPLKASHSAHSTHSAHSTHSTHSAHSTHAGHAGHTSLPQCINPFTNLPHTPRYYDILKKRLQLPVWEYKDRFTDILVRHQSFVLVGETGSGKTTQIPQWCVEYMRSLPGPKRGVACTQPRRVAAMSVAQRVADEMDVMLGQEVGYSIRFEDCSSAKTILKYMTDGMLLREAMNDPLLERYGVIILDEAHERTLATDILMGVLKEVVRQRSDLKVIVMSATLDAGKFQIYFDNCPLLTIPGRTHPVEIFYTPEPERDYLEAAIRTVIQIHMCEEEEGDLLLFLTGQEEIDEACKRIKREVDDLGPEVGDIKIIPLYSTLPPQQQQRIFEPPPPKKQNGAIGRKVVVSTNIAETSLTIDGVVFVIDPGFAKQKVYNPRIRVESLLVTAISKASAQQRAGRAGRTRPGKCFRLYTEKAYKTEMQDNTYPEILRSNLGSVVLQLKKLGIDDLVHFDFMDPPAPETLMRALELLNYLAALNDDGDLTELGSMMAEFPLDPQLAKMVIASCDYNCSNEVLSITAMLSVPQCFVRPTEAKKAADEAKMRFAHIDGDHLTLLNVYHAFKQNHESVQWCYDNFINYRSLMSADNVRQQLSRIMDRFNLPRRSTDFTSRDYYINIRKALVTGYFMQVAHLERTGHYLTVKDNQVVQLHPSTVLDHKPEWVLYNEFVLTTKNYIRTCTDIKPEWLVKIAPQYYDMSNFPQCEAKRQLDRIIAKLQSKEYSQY
UniProt Q9UJV9: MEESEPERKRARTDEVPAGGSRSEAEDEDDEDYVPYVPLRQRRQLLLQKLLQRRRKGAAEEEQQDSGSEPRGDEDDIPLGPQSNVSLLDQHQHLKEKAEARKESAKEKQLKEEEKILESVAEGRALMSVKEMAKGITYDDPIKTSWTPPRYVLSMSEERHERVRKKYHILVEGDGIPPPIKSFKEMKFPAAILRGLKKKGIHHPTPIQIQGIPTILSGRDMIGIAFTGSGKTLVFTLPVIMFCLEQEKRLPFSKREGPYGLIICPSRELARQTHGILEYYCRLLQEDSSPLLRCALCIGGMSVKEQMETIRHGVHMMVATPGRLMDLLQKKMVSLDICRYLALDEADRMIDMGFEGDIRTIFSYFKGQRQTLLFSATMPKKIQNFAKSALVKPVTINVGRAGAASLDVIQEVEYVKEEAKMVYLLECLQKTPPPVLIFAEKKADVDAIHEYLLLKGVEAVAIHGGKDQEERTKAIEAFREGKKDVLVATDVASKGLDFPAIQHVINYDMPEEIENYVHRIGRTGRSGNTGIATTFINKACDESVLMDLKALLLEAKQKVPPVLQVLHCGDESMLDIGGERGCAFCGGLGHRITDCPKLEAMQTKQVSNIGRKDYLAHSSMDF
UniProt P62304: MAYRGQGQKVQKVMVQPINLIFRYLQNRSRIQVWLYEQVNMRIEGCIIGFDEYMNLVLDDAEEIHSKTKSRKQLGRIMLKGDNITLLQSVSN
UniProt P61326: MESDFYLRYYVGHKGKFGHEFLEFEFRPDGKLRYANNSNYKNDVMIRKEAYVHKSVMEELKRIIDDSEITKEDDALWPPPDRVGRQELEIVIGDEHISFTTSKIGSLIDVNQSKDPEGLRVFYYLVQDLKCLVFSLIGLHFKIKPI
UniProt O75643: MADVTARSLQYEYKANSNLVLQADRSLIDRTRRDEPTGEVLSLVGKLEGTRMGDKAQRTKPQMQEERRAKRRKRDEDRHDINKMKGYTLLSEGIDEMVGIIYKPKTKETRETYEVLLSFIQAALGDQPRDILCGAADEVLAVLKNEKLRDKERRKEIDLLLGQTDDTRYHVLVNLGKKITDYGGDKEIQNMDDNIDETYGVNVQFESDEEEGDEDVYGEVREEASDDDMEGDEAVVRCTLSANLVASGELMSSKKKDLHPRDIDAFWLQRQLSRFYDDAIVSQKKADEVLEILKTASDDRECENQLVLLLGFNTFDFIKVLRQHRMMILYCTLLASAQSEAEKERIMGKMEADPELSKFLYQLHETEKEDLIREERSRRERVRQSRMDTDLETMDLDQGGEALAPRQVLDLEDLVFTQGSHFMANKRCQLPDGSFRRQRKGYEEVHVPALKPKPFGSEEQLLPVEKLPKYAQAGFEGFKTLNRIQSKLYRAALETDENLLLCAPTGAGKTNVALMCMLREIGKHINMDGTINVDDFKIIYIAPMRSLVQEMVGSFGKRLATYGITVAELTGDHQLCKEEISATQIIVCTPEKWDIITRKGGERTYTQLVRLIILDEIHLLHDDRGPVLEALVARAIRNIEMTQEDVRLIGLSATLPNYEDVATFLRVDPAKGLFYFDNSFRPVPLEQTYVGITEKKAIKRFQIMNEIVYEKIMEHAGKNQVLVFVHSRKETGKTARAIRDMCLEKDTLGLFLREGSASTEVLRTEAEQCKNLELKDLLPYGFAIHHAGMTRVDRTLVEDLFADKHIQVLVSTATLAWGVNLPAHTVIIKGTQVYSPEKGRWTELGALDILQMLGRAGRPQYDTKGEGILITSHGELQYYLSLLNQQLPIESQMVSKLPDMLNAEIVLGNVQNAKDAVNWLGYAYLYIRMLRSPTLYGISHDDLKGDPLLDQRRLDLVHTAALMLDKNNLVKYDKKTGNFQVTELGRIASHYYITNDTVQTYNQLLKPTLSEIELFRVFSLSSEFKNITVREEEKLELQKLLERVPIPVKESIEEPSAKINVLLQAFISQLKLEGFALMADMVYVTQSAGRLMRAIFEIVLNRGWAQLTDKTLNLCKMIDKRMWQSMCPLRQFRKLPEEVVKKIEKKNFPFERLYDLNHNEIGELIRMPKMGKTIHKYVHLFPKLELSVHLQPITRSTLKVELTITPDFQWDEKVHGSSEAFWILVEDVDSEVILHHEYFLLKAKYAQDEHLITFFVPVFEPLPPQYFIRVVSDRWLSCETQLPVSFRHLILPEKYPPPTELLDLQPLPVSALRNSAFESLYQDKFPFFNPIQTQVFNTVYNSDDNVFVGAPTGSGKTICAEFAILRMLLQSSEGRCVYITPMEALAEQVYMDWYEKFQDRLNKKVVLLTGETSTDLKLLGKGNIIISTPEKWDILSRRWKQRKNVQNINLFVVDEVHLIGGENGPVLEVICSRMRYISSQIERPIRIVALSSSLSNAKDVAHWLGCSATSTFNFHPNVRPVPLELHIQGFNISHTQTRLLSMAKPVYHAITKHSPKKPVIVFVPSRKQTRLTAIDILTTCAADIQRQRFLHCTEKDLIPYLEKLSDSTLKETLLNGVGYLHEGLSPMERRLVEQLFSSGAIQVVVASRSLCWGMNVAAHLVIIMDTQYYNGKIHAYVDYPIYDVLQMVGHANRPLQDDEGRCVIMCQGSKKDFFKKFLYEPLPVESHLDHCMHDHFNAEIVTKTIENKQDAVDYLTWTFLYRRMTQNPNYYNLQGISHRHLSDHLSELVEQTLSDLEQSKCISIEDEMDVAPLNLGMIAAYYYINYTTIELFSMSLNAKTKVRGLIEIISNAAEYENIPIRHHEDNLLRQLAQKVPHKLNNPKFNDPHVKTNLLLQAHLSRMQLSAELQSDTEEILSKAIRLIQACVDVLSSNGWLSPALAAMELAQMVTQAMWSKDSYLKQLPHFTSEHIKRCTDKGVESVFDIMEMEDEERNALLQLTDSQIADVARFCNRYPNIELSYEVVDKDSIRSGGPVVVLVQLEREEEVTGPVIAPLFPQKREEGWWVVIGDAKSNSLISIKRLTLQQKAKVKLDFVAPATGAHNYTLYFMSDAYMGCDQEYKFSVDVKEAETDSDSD

T1: DHX34–GFP–FLAG (human (endogenous in HEK293T)) (UniProt Q14147)
T1 sequence: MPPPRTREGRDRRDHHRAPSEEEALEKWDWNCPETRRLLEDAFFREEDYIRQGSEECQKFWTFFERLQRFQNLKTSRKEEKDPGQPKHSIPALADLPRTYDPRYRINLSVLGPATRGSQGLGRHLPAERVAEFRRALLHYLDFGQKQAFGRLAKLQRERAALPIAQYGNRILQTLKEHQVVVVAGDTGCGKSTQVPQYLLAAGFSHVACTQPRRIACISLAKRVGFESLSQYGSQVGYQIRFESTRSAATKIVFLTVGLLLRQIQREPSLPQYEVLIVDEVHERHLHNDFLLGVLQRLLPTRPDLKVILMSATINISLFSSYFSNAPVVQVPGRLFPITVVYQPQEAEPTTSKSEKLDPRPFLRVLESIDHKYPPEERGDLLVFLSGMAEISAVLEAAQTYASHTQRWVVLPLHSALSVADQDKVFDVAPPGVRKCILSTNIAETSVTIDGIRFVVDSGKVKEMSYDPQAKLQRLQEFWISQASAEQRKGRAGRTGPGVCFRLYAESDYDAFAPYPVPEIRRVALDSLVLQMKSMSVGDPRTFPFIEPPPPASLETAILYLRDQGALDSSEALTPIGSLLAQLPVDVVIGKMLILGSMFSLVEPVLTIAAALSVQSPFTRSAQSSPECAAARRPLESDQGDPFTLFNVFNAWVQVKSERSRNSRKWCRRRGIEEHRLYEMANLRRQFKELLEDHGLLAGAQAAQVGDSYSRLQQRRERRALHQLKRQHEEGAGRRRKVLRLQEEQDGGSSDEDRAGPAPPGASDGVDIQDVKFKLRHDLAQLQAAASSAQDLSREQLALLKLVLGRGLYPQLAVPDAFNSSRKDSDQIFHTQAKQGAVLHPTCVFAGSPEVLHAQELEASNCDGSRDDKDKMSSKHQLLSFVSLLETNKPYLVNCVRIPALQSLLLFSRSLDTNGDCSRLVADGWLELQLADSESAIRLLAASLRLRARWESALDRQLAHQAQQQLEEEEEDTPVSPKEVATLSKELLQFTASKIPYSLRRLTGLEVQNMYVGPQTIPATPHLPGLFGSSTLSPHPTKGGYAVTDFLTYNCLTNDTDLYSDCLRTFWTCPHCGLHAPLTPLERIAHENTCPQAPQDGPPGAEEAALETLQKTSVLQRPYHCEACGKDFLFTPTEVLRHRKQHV


molecular target: T1, DHX34–GFP–FLAG (human (endogenous in HEK293T)); assay: affinity purification with mass spectrometry; anti-GFP antibody-coupled magnetic beads (ChromoTek) on lysates of three independent CRISPR DHX34–GFP–FLAG HEK293T clones (A5, A10, 1B3); cells lysed as in the immunoprecipitation protocol; IP buffer; KingFisher Duo robot; in-solution digestion; LFQ with MaxQuant

Row | binding | Molecule
1 | binds | eIF4A3 (from UniProt P38919 1-411)
2 | binds | SNRPD3 (from UniProt P62318 1-126)
3 | binds | SNRPD2 (from UniProt P62316 1-118)
4 | binds | DHX15/Prp43 (from UniProt O43143 1-795)
5 | binds | DDX41 (from UniProt Q9UJV9 1-622)
6 | binds | SNRNPE (from UniProt P62304 1-92)
7 | binds | MAGOH (from UniProt P61326 1-146)
8 | binds | SNRNP200 (from UniProt O75643 1-2136)
9 | binds | DHX38/Prp16 (protein, UniProt Q92620 1-1227) MGDTSEDASIHRLEGTDLDCQVGGLICKSKSAASEQHVFKAPAPRPSLLGLDLLASLKRREREEKDDGEDKKKSKVSSYKDWEESKDDQKDAEEEGGDQAGQNIRKDRHYRSARVETPSHPGGVSEEFWERSRQRERERREHGVYASSKEEKDWKKEKSRDRDYDRKRDRDERDRSRHSSRSERDGGSERSSRRNEPESPRHRPKDAATPSRSTWEEEDSGYGSSRRSQWESPSPTPSYRDSERSHRLSTRDRDRSVRGKYSDDTPLPTPSYKYNEWADDRRHLGSTPRLSRGRGRREEGEEGISFDTEEERQQWEDDQRQADRDWYMMDEGYDEFHNPLAYSSEDYVRRREQHLHKQKQKRISAQRRQINEDNERWETNRMLTSGVVHRLEVDEDFEEDNAAKVHLMVHNLVPPFLDGRIVFTKQPEPVIPVKDATSDLAIIARKGSQTVRKHREQKERKKAQHKHWELAGTKLGDIMGVKKEEEPDKAVTEDGKVDYRTEQKFADHMKRKSEASSEFAKKKSILEQRQYLPIFAVQQELLTIIRDNSIVIVVGETGSGKTTQLTQYLHEDGYTDYGMIGCTQPRRVAAMSVAKRVSEEMGGNLGEEVGYAIRFEDCTSENTLIKYMTDGILLRESLREADLDHYSAIIMDEAHERSLNTDVLFGLLREVVARRSDLKLIVTSATMDAEKFAAFFGNVPIFHIPGRTFPVDILFSKTPQEDYVEAAVKQSLQVHLSGAPGDILIFMPGQEDIEVTSDQIVEHLEELENAPALAVLPIYSQLPSDLQAKIFQKAPDGVRKCIVATNIAETSLTVDGIMFVIDSGYCKLKVFNPRIGMDALQIYPISQANANQRSGRAGRTGPGQCFRLYTQSAYKNELLTTTVPEIQRTNLANVVLLLKSLGVQDLLQFHFMDPPPEDNMLNSMYQLWILGALDNTGGLTSTGRLMVEFPLDPALSKMLIVSCDMGCSSEILLIVSMLSVPAIFYRPKGREEESDQIREKFAVPESDHLTYLNVYLQWKNNNYSTIWCNDHFIHAKAMRKVREVRAQLKDIMVQQRMSLASCGTDWDIVRKCICAAYFHQAAKLKGIGEYVNIRTGMPCHLHPTSSLFGMGYTPDYIVYHELVMTTKEYMQCVTAVDGEWLAELGPMFYSVKQAGKSRQENRRRAKEEASAMEEEMALAEEQLRARRQEQEKRSPLGSVRSTKIYTPGRKEQGEPMTPRRTPARFGL
10 | binds | GPATCH1 (protein, UniProt Q9BRR8 1-931) MAARDSDSEEDLVSYGTGLEPLEEGERPKKPIPLQDQTVRDEKGRYKRFHGAFSGGFSAGYFNTVGSKEGWTPSTFVSSRQNRADKSVLGPEDFMDEEDLSEFGIAPKAIVTTDDFASKTKDRIREKARQLAAATAPIPGATLLDDLITPAKLSVGFELLRKMGWKEGQGVGPRVKRRPRRQKPDPGVKIYGCALPPGSSEGSEGEDDDYLPDNVTFAPKDVTPVDFTPKDNVHGLAYKGLDPHQALFGTSGEHFNLFSGGSERAGDLGEIGLNKGRKLGISGQAFGVGALEEEDDDIYATETLSKYDTVLKDEEPGDGLYGWTAPRQYKNQKESEKDLRYVGKILDGFSLASKPLSSKKIYPPPELPRDYRPVHYFRPMVAATSENSHLLQVLSESAGKATPDPGTHSKHQLNASKRAELLGETPIQGSATSVLEFLSQKDKERIKEMKQATDLKAAQLKARSLAQNAQSSRAQLSPAAAAGHCSWNMALGGGTATLKASNFKPFAKDPEKQKRYDEFLVHMKQGQKDALERCLDPSMTEWERGRERDEFARAALLYASSHSTLSSRFTHAKEEDDSDQVEVPRDQENDVGDKQSAVKMKMFGKLTRDTFEWHPDKLLCKRFNVPDPYPDSTLVGLPRVKRDKYSVFNFLTLPETASLPTTQASSEKVSQHRGPDKSRKPSRWDTSKHEKKEDSISEFLSLARSKAEPPKQQSSPLVNKEEEHAPELSANQTVNKDVDAQAEGEGSRPSMDLFRAIFASSSDEKSSSSEDEQGDSEDDQAGSGEANFQSSQDTDLGETSSVAHALVPAPQEPPPSFPIQKMQIDEREEFGPRLPPVFCPNARQTLEVPQKEKHKKNKDKHKAKKEHRRKKEKKKKHRKHKHKGKQKNKKPEKSSSSESSDSSDSQSDEETADVSPQELLRRLKSLPLRRQ
11 | binds | ISY1 (protein, UniProt Q9ULR0 1-285) MARNAEKAMTALARFRQAQLEEGKVKERRPFLASECTELPKAEKWRRQIIGEISKKVAQIQNAGLGEFRIRDLNDEINKLLREKGHWEVRIKELGGPDYGKVGPKMLDHEGKEVPGNRGYKYFGAAKDLPGVRELFEKEPLPPPRKTRAELMKAIDFEYYGYLDEDDGVIVPLEQEYEKKLRAELVEKWKAEREARLARGEKEEEEEEEEEINIYAVTEEESDEEGSQEKGGDDSQQKFIAHVPVPSQQEIEEALVRRKKMELLQKYASETLQAQSEEARRLLGY
12 | binds | SNRNP40 (protein, UniProt Q96DI7 1-357) MIEQQKRKGPELPLVPVKRQRHELLLGAGSGPGAGQQQATPGALLQAGPPRCSSLQAPIMLLSGHEGEVYCCKFHPNGSTLASAGFDRLILLWNVYGDCDNYATLKGHSGAVMELHYNTDGSMLFSASTDKTVAVWDSETGERVKRLKGHTSFVNSCYPARRGPQLVCTGSDDGTVKLWDIRKKAAIQTFQNTYQVLAVTFNDTSDQIISGGIDNDIKVWDLRQNKLTYTMRGHADSVTGLSLSSEGSYLLSNAMDNTVRVWDVRPFAPKERCVKIFQGNVHNFEKNLLRCSWSPDGSKIAAGSADRFVYVWDTTSRRILYKLPGHAGSINEVAFHPDEPIIISASSDKRLYMGEIQ
13 | binds | DHX8/Prp22 (protein, UniProt Q14562 1-1220) MAVAVAMAGALIGSEPGPAEELAKLEYLSLVSKVCTELDNHLGINDKDLAEFVISLAEKNTTFDTFKASLVKNGAEFTDSLISNLLRLIQTMRPPAKPSTSKDPVVKPKTEKEKLKELFPVLCQPDNPSVRTMLDEDDVKVAVDVLKELEALMPSAAGQEKQRDAEHRDRTKKKKRSRSRDRNRDRDRDRERNRDRDHKRRHRSRSRSRSRTRERNKVKSRYRSRSRSQSPPKDRKDRDKYGERNLDRWRDKHVDRPPPEEPTIGDIYNGKVTSIMQFGCFVQLEGLRKRWEGLVHISELRREGRVANVADVVSKGQRVKVKVLSFTGTKTSLSMKDVDQETGEDLNPNRRRNLVGETNEETSMRNPDRPTHLSLVSAPEVEDDSLERKRLTRISDPEKWEIKQMIAANVLSKEEFPDFDEETGILPKVDDEEDEDLEIELVEEEPPFLRGHTKQSMDMSPIKIVKNPDGSLSQAAMMQSALAKERRELKQAQREAEMDSIPMGLNKHWVDPLPDAEGRQIAANMRGIGMMPNDIPEWKKHAFGGNKASYGKKTQMSILEQRESLPIYKLKEQLVQAVHDNQILIVIGETGSGKTTQITQYLAEAGYTSRGKIGCTQPRRVAAMSVAKRVSEEFGCCLGQEVGYTIRFEDCTSPETVIKYMTDGMLLRECLIDPDLTQYAIIMLDEAHERTIHTDVLFGLLKKTVQKRQDMKLIVTSATLDAVKFSQYFYEAPIFTIPGRTYPVEILYTKEPETDYLDASLITVMQIHLTEPPGDILVFLTGQEEIDTACEILYERMKSLGPDVPELIILPVYSALPSEMQTRIFDPAPPGSRKVVIATNIAETSLTIDGIYYVVDPGFVKQKVYNSKTGIDQLVVTPISQAQAKQRAGRAGRTGPGKCYRLYTERAYRDEMLTTNVPEIQRTNLASTVLSLKAMGINDLLSFDFMDAPPMETLITAMEQLYTLGALDDEGLLTRLGRRMAEFPLEPMLCKMLIMSVHLGCSEEMLTIVSMLSVQNVFYRPKDKQALADQKKAKFHQTEGDHLTLLAVYNSWKNNKFSNPWCYENFIQARSLRRAQDIRKQMLGIMDRHKLDVVSCGKSTVRVQKAICSGFFRNAAKKDPQEGYRTLIDQQVVYIHPSSALFNRQPEWVVYHELVLTTKEYMREVTTIDPRWLVEFAPAFFKVSDPTKLSKQKKQQRLEPLYNRYEEPNAWRISRAFRRR
